Most values lie at the level of the controls, where differences are scatter.
Tests used:
Assay in all cases: normalised response (% of control), CellTox Green; higher = less cell death (100 = DMSO, 0 = benzethonium chloride kill control)
Details in all cases: incubation time: 72 h
BT-474 [1] = tested on: BT-474
Experimental: (§1)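 DSRT, 72 h incubation, CellTox Green / CellTiter-Glo readout. Signal is normalised to DMSO and benzethonium chloride controls. Value is the normalised response at the lowest tested concentration.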

MDA-MB-453 [2] = tested on: MDA-MB-453
Experimental: as §1

HCC1599 [3] = tested on: HCC1599
Experimental: as §1

BT-549 [4] = tested on: BT-549
Experimental: as §1

CAL-51 [5] = tested on: CAL-51
Experimental: as §1

MFM-223 [6] = tested on: MFM-223
Experimental: as §1

HCC1143 [7] = tested on: HCC1143
Experimental: as §1

MCF-10A [8] = tested on: MCF-10A
Experimental: as §1

HDQ-P1 [9] = tested on: HDQ-P1
Experimental: as §1

DU-4475 [10] = tested on: DU-4475
Experimental: as §1

Hs578T [11] = tested on: Hs578T
Experimental: as §1

CAL-120 [12] = tested on: CAL-120
Experimental: as §1

CAL-85-1 [13] = tested on: CAL-85-1
Experimental: as §1

CAL-148 [14] = tested on: CAL-148
Experimental: as §1

HCC1937 [15] = tested on: HCC1937
Experimental: as §1

MDA-MB-468 [16] = tested on: MDA-MB-468
Experimental: as §1

MDA-MB-231 [17] = tested on: MDA-MB-231
Experimental: as §1

MDA-MB-436 [18] = tested on: MDA-MB-436
Experimental: as §1

BT-474 [19] = tested on: BT-474; remark: listed apart in the source
Experimental: (§2)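 DSRT, 72 h incubation, CellTox Green / CellTiter-Glo readout. Signal is normalised to DMSO and benzethonium chloride controls. Value is the normalised response at dose 2.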

MDA-MB-453 [20] = tested on: MDA-MB-453; remark: listed apart in the source
Experimental: as §2

HCC1599 [21] = tested on: HCC1599; remark: listed apart in the source
Experimental: as §2

BT-549 [22] = tested on: BT-549; remark: listed apart in the source
Experimental: as §2

CAL-51 [23] = tested on: CAL-51; remark: listed apart in the source
Experimental: as §2

MFM-223 [24] = tested on: MFM-223; remark: listed apart in the source
Experimental: as §2

HCC1143 [25] = tested on: HCC1143; remark: listed apart in the source
Experimental: as §2

MCF-10A [26] = tested on: MCF-10A; remark: listed apart in the source
Experimental: as §2

HDQ-P1 [27] = tested on: HDQ-P1; remark: listed apart in the source
Experimental: as §2

DU-4475 [28] = tested on: DU-4475; remark: listed apart in the source
Experimental: as §2

Hs578T [29] = tested on: Hs578T; remark: listed apart in the source
Experimental: as §2

CAL-120 [30] = tested on: CAL-120; remark: listed apart in the source
Experimental: as §2

CAL-85-1 [31] = tested on: CAL-85-1; remark: listed apart in the source
Experimental: as §2

CAL-148 [32] = tested on: CAL-148; remark: listed apart in the source
Experimental: as §2

HCC1937 [33] = tested on: HCC1937; remark: listed apart in the source
Experimental: as §2

MDA-MB-436 [34] = tested on: MDA-MB-436; remark: listed apart in the source
Experimental: as §2

MDA-MB-468 [35] = tested on: MDA-MB-468; remark: listed apart in the source
Experimental: as §2

MDA-MB-231 [36] = tested on: MDA-MB-231; remark: listed apart in the source
Experimental: as §2

`Cc1cc(Nc2nc(N[C@@H](C)c3ncc(F)cn3)ncc2Cl)[nH]n1` [AZD1480] (0.1 nM) was tested, and the normalised response (BT-474 [1]) was 76.8%, the normalised response (MDA-MB-453 [2]) was 101% and the normalised response (HCC1599 [3]) was 99.7%. For the same compound, the normalised response (BT-549 [4]) was 107%, the normalised response (CAL-51 [5]) was 108% and the normalised response (MFM-223 [6]) was 104%. For the same compound, the normalised response (HCC1143 [7]) was 124%, the normalised response (MCF-10A [8]) was 104% and the normalised response (HDQ-P1 [9]) was 99.4%. For the same compound, the normalised response (DU-4475 [10]) was 95.4%, the normalised response (Hs578T [11]) was 94.4% and the normalised response (CAL-120 [12]) was 96.3%. For the same compound, the normalised response (CAL-85-1 [13]) was 99%, the normalised response (CAL-148 [14]) was 100% and the normalised response (HCC1937 [15]) was 95.6%. It also gave a normalised response (MDA-MB-468 [16]) of 108% and a normalised response (MDA-MB-231 [17]) of 82.5%.

In the case of `CCC1(c2ccc(N)cc2)CCC(=O)NC1=O` (stereo unspecified) [Aminoglutethimide] (1 nM), the normalised response (BT-474 [1]) is reported as 101%, the normalised response (MDA-MB-453 [2]) is reported as 92.9% and the normalised response (HCC1599 [3]) is reported as 103%. The normalised response (BT-549 [4]) was 106%, the normalised response (CAL-51 [5]) was 123% and the normalised response (MFM-223 [6]) was 102%. The normalised response (MCF-10A [8]) was 107%, the normalised response (HDQ-P1 [9]) was 102% and the normalised response (DU-4475 [10]) was 99.6%. For the same compound, the normalised response (Hs578T [11]) was 105%, the normalised response (CAL-120 [12]) was 94.7% and the normalised response (CAL-85-1 [13]) was 104%. It also gave a normalised response (CAL-148 [14]) of 86.5%, a normalised response (HCC1937 [15]) of 76.4% and a normalised response (MDA-MB-468 [16]) of 106%. The normalised response (MDA-MB-231 [17]) was 101%.

`CCC/C=C/C=C/C(=O)O[C@H]1/C(=C/C(=O)OC)C[C@H]2C[C@H]([C@@H](C)O)OC(=O)C[C@H](O)C[C@@H]3C[C@H](OC(C)=O)C(C)(C)[C@](O)(C[C@@H]4C/C(=C/C(=O)OC)C[C@H](/C=C/C(C)(C)[C@]1(O)O2)O4)O3` [Bryostatin 1] (0.01 nM) gave a normalised response (BT-474 [1]) of 107%, a normalised response (MDA-MB-453 [2]) of 110% and a normalised response (HCC1599 [3]) of 109%. It also gave a normalised response (BT-549 [4]) of 95.7%, a normalised response (CAL-51 [5]) of 123% and a normalised response (MFM-223 [6]) of 104%. The normalised response (HCC1143 [7]) was 119%, the normalised response (MCF-10A [8]) was 89.2% and the normalised response (HDQ-P1 [9]) was 89.7%. The normalised response (DU-4475 [10]) was 105%, the normalised response (Hs578T [11]) was 89.5% and the normalised response (CAL-120 [12]) was 101%. The normalised response (CAL-85-1 [13]) was 109%, the normalised response (CAL-148 [14]) was 107% and the normalised response (HCC1937 [15]) was 104%. The normalised response (MDA-MB-468 [16]) was 90.7% and the normalised response (MDA-MB-231 [17]) was 100%.

`O=C(Cc1ccc(-c2ccc(OCCN3CCOCC3)cc2)cn1)NCc1ccccc1` [KX2-391] (1 nM) gave a normalised response (BT-474 [1]) of 99.1%, a normalised response (MDA-MB-453 [2]) of 108% and a normalised response (HCC1599 [3]) of 115%. For the same compound, the normalised response (BT-549 [4]) was 93.4%, the normalised response (CAL-51 [5]) was 119% and the normalised response (MFM-223 [6]) was 92.6%. It also gave a normalised response (HCC1143 [7]) of 123%, a normalised response (HDQ-P1 [9]) of 98.9% and a normalised response (DU-4475 [10]) of 105%. The normalised response (Hs578T [11]) was 97.8%, the normalised response (CAL-120 [12]) was 99.2% and the normalised response (CAL-85-1 [13]) was 97.5%. For the same compound, the normalised response (CAL-148 [14]) was 104%, the normalised response (HCC1937 [15]) was 92.5% and the normalised response (MDA-MB-436 [18]) was 98.4%. It also gave a normalised response (MDA-MB-468 [16]) of 81.5%.

`COc1cc(Nc2ncc(F)c(Nc3ccc4c(n3)NC(=O)C(C)(C)O4)n2)cc(OC)c1OC` [Tamatinib] (1 nM) showed a normalised response (BT-474 [1]) of 99.4%, a normalised response (MDA-MB-453 [2]) of 97.9% and a normalised response (HCC1599 [3]) of 108%. The normalised response (BT-549 [4]) was 91.8%, the normalised response (CAL-51 [5]) was 121% and the normalised response (MFM-223 [6]) was 102%. It also gave a normalised response (HCC1143 [7]) of 117%, a normalised response (MCF-10A [8]) of 106% and a normalised response (HDQ-P1 [9]) of 95.9%. It also gave a normalised response (DU-4475 [10]) of 106%, a normalised response (Hs578T [11]) of 101% and a normalised response (CAL-120 [12]) of 101%. For the same compound, the normalised response (CAL-85-1 [13]) was 98.2%, the normalised response (CAL-148 [14]) was 107% and the normalised response (HCC1937 [15]) was 106%. It also gave a normalised response (MDA-MB-468 [16]) of 97.1% and a normalised response (MDA-MB-231 [17]) of 77.7%.

For `O=C1CCC(N2C(=O)c3ccccc3C2=O)C(=O)N1` (stereo unspecified) [Thalidomide] (1 nM), the normalised response (BT-474 [1]) was 96.2%, the normalised response (MDA-MB-453 [2]) was 102% and the normalised response (HCC1599 [3]) was 103%. It also gave a normalised response (BT-549 [4]) of 105%, a normalised response (CAL-51 [5]) of 87% and a normalised response (MFM-223 [6]) of 98.3%. The normalised response (HCC1143 [7]) was 122%, the normalised response (MCF-10A [8]) was 97% and the normalised response (HDQ-P1 [9]) was 94%. The normalised response (DU-4475 [10]) was 101%, the normalised response (Hs578T [11]) was 97.7% and the normalised response (CAL-120 [12]) was 103%. For the same compound, the normalised response (CAL-85-1 [13]) was 101%, the normalised response (CAL-148 [14]) was 103% and the normalised response (HCC1937 [15]) was 98.8%. The normalised response (MDA-MB-436 [18]) was 94.2% and the normalised response (MDA-MB-468 [16]) was 104%.

In the case of `O=C1CCC(N2C(=O)c3ccccc3C2=O)C(=O)N1` (stereo unspecified) [Thalidomide] (10 nM), the normalised response (BT-474 [19]) is reported as 101%, the normalised response (MDA-MB-453 [20]) is reported as 96% and the normalised response (HCC1599 [21]) is reported as 103%. It also gave a normalised response (BT-549 [22]) of 98.9%, a normalised response (CAL-51 [23]) of 30.7% and a normalised response (MFM-223 [24]) of 101%. The normalised response (HCC1143 [25]) was 90.7%, the normalised response (MCF-10A [26]) was 101% and the normalised response (HDQ-P1 [27]) was 96.3%. It also gave a normalised response (DU-4475 [28]) of 94.4%, a normalised response (Hs578T [29]) of 126% and a normalised response (CAL-120 [30]) of 97.8%. For the same compound, the normalised response (CAL-85-1 [31]) was 101%, the normalised response (CAL-148 [32]) was 102% and the normalised response (HCC1937 [33]) was 108%. The normalised response (MDA-MB-436 [34]) was 94.2%, the normalised response (MDA-MB-468 [35]) was 138% and the normalised response (MDA-MB-231 [36]) was 82.9%.

With `Oc1ncc(N(CCCl)CCCl)c(O)n1` [Uracil mustard] (10 nM) the normalised response (BT-474 [19]) was 105%, the normalised response (MDA-MB-453 [20]) was 97.5% and the normalised response (HCC1599 [21]) was 107%. It also gave a normalised response (BT-549 [22]) of 106%, a normalised response (CAL-51 [23]) of 97% and a normalised response (MFM-223 [24]) of 106%. For the same compound, the normalised response (HCC1143 [25]) was 116%, the normalised response (MCF-10A [26]) was 92.3% and the normalised response (HDQ-P1 [27]) was 73.1%. For the same compound, the normalised response (DU-4475 [28]) was 97.5%, the normalised response (Hs578T [29]) was 112% and the normalised response (CAL-120 [30]) was 103%. For the same compound, the normalised response (CAL-85-1 [31]) was 112%, the normalised response (CAL-148 [32]) was 109% and the normalised response (HCC1937 [33]) was 118%. It also gave a normalised response (MDA-MB-436 [34]) of 108%, a normalised response (MDA-MB-468 [35]) of 102% and a normalised response (MDA-MB-231 [36]) of 64.3%.

From the supplement of paper PMC4862054
